Taken from: PubChem BioAssay AID1259254 (NCATS, 2017)

- Test: 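Gene knock-downs that lead to re-replication, shown by excess G2 DNA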 (primary screen)
- Cells: human HCT116 colorectal cancer cells
- Reagents: single siRNA against human genes
- Duration: 3 days
- Measured: 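Imaged Hoechst DNA stain sorts each cell into a cycle phase by DNA amount; per plate, G2 fraction set to 0% for non-targeting and 100% for GMNN siRNA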
- Scale: G2 robust z-score and G2 cells, % of GMNN control: higher = more G2 cells, more excess DNA replication
- Hit rule: 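Active siRNAs have a G2 robust z of 5 or more median absolute deviations over the median, which in these data means about 38% or higher of GMNN control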
This is one part, drawn at random, of about 59,000 deposited reagents. Over the whole deposit, about 1,550 (2.6%) are marked active. 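G2 share is only a proxy for re-replication; each gene was hit by three separate siRNAs, and active genes were retested.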 Reagents against one gene are numbered here. Not all columns of the deposit are shown. Not given: the amount of reagent.

GPR35 #1 — G2 robust z-score = 2.51; G2 cells, % of GMNN control = 20.6; call = inactive
GPR35 #2 — G2 robust z-score = -0.332; G2 cells, % of GMNN control = 0.632; call = inactive
GPR35 #3 — G2 robust z-score = 2.91; G2 cells, % of GMNN control = 23.5; call = inactive
GINS4 #1 — G2 robust z-score = -1.3; G2 cells, % of GMNN control = -6.18; call = inactive
GINS4 #2 — G2 robust z-score = -0.386; G2 cells, % of GMNN control = 0.253; call = inactive
GINS4 #3 — G2 robust z-score = -0.759; G2 cells, % of GMNN control = -2.37; call = inactive

Sorted by “G2 robust z-score” (low to high): 2 of the entries above
GPR35 #2 — G2 robust z-score = -0.332; G2 cells, % of GMNN control = 0.632; call = inactive
GPR35 #3 — G2 robust z-score = 2.91; G2 cells, % of GMNN control = 23.5; call = inactive

The results go on:
RD3 #1 — G2 robust z-score = 2.83; G2 cells, % of GMNN control = 22.9; call = inactive
RD3 #2 — G2 robust z-score = 2.04; G2 cells, % of GMNN control = 17.3; call = inactive
RD3 #3 — G2 robust z-score = 2.64; G2 cells, % of GMNN control = 21.5; call = inactive
ELK1 #1 — G2 robust z-score = 4.97; G2 cells, % of GMNN control = 37.9; call = inactive
ELK1 #2 — G2 robust z-score = 0.493; G2 cells, % of GMNN control = 6.44; call = inactive
ELK1 #3 — G2 robust z-score = 0.378; G2 cells, % of GMNN control = 5.63; call = inactive
ZDHHC8 #1 — G2 robust z-score = -0.524; G2 cells, % of GMNN control = -0.716; call = inactive
ZDHHC8 #2 — G2 robust z-score = -0.488; G2 cells, % of GMNN control = -0.469; call = inactive
ZDHHC8 #3 — G2 robust z-score = -1.07; G2 cells, % of GMNN control = -4.59; call = inactive
ABHD6 #1 — G2 robust z-score = -1.08; G2 cells, % of GMNN control = -4.64; call = inactive
ABHD6 #2 — G2 robust z-score = -0.67; G2 cells, % of GMNN control = -1.75; call = inactive
ABHD6 #3 — G2 robust z-score = 0.672; G2 cells, % of GMNN control = 7.7; call = inactive
